The other results are listed elsewhere or left out. Most entries show no effect beyond the scatter of the controls.

Protein sequences, listed by entry. Tags and fused reporters are not part of them. Lines headed by an entry give the natural chain unless they say otherwise; changes in a name come on top.
UniProt A1L020: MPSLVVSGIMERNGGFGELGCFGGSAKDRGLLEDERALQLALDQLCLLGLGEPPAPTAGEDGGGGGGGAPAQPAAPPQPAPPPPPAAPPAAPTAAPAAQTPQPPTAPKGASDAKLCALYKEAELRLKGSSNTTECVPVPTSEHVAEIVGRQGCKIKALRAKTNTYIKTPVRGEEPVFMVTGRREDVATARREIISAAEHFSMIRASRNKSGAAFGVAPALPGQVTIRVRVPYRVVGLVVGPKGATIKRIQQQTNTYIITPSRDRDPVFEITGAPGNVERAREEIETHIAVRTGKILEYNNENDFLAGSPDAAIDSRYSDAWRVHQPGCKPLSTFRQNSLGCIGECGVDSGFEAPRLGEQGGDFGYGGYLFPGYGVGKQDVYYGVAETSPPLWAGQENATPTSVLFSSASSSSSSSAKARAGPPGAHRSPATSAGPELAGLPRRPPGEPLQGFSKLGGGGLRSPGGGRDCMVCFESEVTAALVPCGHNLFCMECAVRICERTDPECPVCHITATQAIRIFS
UniProt A6NER0: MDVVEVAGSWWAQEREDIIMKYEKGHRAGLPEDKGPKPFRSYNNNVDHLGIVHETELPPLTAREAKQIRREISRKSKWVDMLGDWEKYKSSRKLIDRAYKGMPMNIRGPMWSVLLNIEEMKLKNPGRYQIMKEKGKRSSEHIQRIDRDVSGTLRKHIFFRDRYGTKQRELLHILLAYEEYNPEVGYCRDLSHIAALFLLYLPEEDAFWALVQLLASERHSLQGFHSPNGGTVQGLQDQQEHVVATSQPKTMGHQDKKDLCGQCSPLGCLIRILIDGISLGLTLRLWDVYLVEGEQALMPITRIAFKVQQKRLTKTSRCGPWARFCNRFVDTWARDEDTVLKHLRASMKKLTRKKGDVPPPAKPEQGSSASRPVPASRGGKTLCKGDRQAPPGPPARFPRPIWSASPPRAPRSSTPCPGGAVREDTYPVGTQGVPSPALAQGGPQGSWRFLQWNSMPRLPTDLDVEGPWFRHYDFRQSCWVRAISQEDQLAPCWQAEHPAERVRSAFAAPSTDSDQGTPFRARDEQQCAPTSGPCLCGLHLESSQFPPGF
UniProt A2RUR9: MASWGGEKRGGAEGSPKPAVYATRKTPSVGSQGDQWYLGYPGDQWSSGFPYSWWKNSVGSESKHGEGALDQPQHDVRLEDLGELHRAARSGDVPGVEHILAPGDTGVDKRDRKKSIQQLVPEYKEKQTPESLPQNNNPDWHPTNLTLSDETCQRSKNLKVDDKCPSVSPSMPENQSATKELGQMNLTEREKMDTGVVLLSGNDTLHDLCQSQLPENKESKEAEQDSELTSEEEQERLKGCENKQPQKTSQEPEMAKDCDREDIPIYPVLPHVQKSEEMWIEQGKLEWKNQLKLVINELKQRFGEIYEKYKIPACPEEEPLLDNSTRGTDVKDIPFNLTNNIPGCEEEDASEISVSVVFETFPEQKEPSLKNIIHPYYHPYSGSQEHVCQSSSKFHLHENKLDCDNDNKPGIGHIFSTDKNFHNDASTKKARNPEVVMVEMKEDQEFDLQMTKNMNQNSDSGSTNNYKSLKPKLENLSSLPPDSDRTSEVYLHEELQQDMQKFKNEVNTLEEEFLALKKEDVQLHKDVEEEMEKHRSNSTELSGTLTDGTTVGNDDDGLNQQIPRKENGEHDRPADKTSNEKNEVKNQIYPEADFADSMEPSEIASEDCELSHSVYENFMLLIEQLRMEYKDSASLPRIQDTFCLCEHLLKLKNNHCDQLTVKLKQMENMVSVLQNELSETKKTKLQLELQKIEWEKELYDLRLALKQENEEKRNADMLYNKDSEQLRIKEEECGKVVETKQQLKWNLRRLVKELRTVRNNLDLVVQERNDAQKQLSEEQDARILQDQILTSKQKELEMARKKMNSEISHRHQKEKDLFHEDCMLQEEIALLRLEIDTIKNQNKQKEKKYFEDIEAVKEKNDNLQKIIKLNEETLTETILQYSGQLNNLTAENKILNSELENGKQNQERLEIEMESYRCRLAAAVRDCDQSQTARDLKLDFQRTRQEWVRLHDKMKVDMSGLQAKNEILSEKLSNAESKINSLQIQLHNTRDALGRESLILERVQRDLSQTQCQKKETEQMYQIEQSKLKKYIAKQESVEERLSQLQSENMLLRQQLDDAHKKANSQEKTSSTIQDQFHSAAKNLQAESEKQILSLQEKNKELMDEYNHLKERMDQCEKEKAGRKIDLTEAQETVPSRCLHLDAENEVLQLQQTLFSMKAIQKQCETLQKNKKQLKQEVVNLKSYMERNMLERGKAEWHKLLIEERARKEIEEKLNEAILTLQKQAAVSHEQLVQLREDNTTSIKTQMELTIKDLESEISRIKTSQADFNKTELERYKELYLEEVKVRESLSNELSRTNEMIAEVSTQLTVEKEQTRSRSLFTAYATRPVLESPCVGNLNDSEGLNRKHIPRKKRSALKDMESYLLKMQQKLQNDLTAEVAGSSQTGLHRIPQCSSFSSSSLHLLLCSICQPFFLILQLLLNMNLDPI
UniProt A2RRP1: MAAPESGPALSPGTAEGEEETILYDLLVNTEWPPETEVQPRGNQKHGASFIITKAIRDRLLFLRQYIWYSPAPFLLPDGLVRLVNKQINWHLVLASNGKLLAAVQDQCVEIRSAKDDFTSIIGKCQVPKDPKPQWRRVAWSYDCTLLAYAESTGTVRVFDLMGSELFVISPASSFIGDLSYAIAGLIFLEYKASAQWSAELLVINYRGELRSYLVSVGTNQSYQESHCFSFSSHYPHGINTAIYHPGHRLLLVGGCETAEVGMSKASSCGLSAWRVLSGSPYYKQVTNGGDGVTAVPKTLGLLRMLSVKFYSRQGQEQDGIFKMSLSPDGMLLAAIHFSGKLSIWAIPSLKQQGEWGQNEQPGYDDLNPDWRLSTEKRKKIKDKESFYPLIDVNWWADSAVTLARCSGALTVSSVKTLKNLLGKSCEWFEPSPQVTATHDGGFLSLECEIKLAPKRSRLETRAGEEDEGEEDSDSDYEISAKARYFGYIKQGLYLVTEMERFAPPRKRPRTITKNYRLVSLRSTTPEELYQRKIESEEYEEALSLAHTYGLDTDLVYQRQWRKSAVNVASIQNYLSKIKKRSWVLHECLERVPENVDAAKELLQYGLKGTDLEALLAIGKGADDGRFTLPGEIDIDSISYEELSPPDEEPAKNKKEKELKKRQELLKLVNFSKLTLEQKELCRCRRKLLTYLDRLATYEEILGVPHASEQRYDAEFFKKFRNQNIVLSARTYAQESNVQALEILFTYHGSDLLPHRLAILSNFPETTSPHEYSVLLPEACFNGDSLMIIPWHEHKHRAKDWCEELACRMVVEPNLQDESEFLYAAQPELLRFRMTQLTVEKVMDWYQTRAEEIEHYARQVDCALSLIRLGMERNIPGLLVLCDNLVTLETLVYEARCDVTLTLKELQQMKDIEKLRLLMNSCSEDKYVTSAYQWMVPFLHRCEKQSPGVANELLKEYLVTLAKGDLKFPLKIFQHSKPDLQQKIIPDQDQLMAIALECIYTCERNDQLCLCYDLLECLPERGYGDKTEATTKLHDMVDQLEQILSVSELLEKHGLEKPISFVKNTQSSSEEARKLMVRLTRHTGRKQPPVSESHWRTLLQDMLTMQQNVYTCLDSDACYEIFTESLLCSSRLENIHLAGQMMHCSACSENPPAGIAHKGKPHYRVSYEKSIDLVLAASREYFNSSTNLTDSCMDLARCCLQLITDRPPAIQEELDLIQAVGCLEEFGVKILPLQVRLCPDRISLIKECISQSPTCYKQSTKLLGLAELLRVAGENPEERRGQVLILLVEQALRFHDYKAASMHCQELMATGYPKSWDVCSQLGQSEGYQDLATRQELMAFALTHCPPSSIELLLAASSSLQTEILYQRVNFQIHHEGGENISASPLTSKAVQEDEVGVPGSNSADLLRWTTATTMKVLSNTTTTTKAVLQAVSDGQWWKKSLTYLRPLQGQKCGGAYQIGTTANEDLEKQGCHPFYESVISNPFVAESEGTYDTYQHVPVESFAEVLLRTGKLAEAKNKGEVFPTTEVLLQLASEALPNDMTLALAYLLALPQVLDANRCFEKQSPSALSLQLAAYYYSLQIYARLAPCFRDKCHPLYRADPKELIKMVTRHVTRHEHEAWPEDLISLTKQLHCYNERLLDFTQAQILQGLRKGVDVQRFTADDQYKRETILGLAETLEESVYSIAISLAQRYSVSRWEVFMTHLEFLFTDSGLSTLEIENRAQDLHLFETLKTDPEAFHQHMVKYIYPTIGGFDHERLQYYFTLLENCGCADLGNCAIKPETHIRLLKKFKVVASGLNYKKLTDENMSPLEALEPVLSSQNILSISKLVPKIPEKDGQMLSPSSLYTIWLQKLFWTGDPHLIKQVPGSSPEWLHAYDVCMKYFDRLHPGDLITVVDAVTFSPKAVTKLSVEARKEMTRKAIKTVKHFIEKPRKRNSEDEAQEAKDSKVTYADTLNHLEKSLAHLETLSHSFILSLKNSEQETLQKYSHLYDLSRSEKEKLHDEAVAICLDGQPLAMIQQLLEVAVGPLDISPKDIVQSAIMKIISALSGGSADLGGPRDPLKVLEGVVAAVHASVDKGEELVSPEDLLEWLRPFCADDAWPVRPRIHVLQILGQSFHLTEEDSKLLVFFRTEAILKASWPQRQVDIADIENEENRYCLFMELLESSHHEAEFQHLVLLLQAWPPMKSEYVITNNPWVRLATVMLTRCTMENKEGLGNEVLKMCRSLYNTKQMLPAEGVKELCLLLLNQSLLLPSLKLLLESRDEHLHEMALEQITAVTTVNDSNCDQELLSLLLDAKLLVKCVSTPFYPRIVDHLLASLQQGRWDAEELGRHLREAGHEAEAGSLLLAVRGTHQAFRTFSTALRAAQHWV
UniProt A3KN83: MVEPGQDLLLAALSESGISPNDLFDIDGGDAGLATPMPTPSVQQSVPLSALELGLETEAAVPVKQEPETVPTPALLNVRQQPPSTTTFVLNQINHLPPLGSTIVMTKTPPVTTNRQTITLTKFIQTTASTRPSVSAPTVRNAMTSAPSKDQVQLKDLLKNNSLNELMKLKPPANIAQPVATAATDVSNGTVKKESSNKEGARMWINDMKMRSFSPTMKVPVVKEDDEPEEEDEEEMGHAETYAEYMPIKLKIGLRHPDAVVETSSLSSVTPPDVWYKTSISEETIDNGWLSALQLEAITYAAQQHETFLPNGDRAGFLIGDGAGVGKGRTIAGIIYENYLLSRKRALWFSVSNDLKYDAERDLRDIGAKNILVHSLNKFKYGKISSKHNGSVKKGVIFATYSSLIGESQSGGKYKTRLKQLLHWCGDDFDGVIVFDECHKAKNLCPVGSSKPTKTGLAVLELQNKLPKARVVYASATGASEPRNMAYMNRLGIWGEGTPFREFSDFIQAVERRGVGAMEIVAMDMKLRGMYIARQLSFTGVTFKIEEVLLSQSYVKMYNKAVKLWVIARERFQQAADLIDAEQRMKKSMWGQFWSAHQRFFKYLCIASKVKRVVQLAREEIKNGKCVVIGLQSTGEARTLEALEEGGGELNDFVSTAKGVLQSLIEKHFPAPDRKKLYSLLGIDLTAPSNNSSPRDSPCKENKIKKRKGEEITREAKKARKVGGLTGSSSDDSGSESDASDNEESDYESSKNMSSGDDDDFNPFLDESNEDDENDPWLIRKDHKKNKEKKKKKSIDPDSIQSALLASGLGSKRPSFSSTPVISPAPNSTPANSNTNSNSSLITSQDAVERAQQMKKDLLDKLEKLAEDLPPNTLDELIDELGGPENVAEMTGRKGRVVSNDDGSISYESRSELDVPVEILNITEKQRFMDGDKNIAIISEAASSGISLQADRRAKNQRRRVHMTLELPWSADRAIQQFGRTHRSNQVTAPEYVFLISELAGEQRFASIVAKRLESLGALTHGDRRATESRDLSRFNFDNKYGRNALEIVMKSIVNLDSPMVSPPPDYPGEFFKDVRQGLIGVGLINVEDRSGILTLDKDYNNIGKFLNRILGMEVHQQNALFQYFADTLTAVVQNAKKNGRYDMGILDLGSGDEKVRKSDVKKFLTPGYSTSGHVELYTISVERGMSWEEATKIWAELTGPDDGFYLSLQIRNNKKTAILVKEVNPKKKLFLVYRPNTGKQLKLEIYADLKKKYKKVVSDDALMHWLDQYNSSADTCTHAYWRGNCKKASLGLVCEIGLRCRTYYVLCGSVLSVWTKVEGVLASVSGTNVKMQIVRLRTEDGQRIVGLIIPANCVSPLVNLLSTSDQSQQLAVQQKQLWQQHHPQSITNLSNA
UniProt A6NDU8: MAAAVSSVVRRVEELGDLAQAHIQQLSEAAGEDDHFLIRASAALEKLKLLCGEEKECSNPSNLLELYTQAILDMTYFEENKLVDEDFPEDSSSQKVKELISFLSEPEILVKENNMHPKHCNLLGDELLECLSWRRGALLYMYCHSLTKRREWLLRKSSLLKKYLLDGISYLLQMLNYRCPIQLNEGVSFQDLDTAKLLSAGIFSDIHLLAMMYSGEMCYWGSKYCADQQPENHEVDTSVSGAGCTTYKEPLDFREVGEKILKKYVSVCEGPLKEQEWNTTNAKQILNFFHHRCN

Compound in this experiment: CN[C@@H]1C[C@H]2O[C@@](C)([C@@H]1OC)n1c3ccccc3c3c4c(c5c6ccccc6n2c5c31)C(=O)NC4 [staurosporine]
Nature of the experiment: log2 fold change of tryptic peptide abundance, ligand vs vehicle (limited proteolysis) (log2 ratio); higher = more trypsin-susceptible (destabilized). The note with it: ligand concentration: 20 uM; sample: K562 cleared lysate; digestion: 4 min, 22 C (HT-PELSA RT4min, Orbitrap Astral).
Consider “A0A3B3IU46 (peptide sequence: SNQWHGR, peptide start residue: 79), A0A3B3IU46”, for which the log2 fold change was -0.192. Under “A0A8I5KQN6 (peptide sequence: EQEEKIR, peptide start residue: 268)” stands 0.303; under “MEX3A (peptide sequence: DRDPVFEITGAPGNVER, peptide start residue: 263) (UniProt A1L020)”, -0.322. The same measure for “A0AVT1 (peptide sequence: NAIFQLEK, peptide start residue: 823)”: 0.214; for “UniProt A6NER0 (peptide sequence: KKGDVPPPAK, peptide start residue: 353)”: -0.15. The same measure for “CCDC144A (peptide sequence: FKNEVNTLEEEFLALKK, peptide start residue: 502) (UniProt A2RUR9)”: -0.153; for “A0A0U1RRE5 (peptide sequence: STLPPGNAR, peptide start residue: 11), A0A0U1RRE5”: -0.179; for “UniProt A2RRP1 (peptide sequence: RGQVLILLVEQALR, peptide start residue: 1280)”: 0.379. For “MED19 (peptide sequence: LHTGPLPEQCR, peptide start residue: 154) (UniProt A0JLT2)”, the log2 fold change is -0.122. The same measure for “SBNO1 (peptide sequence: DSPCKENK, peptide start residue: 696) (UniProt A3KN83)”: 0.633; for “C5orf51 (peptide sequence: ENNMHPK, peptide start residue: 112) (UniProt A6NDU8)”: 0.313.

The record behind these values is the supplement of paper PMC12819154, “High-throughput peptide-centric local stability assay extends protein–ligand identification to membrane proteins, tissues and bacteria” (Nature Structural & Molecular Biology, 2025).
